Results reported in PMC8257531.
These are yes or no findings as the source states them, for the method shown. In cells and extracts the contact can be indirect. Some entries that bind do so weakly or less than the wild type. For part of these data: Where a sequence is shown, tags or fusion partners need not be part of it.

Protein sequences, listed by entry. Tags and fused reporters are not part of them.
UniProt Q9NRU3: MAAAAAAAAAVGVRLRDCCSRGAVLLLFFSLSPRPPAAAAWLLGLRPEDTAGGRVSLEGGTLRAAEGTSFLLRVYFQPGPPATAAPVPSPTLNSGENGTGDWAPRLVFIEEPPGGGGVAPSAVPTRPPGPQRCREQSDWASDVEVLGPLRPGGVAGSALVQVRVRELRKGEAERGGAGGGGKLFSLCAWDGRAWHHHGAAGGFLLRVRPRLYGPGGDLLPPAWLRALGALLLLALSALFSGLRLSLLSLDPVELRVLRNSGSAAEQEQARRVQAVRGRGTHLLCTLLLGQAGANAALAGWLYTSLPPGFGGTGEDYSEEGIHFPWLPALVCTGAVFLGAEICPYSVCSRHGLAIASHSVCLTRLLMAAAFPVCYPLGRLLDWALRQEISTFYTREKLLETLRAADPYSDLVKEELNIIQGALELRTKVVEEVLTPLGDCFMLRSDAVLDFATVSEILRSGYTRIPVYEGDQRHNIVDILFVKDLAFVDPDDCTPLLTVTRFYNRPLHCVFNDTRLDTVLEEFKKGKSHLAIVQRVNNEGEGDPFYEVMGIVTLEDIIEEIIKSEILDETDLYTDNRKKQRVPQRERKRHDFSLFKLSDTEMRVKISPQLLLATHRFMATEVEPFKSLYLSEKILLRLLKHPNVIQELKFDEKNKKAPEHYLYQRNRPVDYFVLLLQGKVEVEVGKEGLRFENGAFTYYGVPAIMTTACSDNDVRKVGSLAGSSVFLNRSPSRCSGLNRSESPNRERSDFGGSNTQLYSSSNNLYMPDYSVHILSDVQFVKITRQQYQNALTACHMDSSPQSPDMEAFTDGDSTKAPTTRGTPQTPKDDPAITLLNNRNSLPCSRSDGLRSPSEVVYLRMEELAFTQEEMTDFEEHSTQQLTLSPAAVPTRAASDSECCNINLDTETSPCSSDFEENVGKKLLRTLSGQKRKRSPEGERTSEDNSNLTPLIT

T1: FLAG-tagged CNNM4 (human) (UniProt Q6P4Q7)
T1 sequence: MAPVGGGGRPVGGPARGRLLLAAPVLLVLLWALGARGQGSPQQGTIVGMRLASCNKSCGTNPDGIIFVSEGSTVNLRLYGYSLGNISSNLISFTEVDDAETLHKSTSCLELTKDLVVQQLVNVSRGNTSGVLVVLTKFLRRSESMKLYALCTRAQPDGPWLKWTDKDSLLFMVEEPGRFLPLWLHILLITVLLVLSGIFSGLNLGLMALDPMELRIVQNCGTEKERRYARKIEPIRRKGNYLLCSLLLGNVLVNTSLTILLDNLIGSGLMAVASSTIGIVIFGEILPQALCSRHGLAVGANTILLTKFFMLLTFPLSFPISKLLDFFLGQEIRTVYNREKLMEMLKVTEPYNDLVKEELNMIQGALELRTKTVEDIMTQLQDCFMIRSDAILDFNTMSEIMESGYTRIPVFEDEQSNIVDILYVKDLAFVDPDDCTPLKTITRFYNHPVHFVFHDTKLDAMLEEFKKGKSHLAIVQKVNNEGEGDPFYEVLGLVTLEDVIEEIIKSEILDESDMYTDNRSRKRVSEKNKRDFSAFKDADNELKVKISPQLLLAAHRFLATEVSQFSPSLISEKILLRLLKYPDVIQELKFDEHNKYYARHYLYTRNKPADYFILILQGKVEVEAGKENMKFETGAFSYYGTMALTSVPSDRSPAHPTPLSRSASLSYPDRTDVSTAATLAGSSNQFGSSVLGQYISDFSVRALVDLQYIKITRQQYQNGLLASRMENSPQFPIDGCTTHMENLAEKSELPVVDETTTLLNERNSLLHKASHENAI

T2: FLAG-tagged CNNM2 (human) (UniProt Q9H8M5)
T2 sequence: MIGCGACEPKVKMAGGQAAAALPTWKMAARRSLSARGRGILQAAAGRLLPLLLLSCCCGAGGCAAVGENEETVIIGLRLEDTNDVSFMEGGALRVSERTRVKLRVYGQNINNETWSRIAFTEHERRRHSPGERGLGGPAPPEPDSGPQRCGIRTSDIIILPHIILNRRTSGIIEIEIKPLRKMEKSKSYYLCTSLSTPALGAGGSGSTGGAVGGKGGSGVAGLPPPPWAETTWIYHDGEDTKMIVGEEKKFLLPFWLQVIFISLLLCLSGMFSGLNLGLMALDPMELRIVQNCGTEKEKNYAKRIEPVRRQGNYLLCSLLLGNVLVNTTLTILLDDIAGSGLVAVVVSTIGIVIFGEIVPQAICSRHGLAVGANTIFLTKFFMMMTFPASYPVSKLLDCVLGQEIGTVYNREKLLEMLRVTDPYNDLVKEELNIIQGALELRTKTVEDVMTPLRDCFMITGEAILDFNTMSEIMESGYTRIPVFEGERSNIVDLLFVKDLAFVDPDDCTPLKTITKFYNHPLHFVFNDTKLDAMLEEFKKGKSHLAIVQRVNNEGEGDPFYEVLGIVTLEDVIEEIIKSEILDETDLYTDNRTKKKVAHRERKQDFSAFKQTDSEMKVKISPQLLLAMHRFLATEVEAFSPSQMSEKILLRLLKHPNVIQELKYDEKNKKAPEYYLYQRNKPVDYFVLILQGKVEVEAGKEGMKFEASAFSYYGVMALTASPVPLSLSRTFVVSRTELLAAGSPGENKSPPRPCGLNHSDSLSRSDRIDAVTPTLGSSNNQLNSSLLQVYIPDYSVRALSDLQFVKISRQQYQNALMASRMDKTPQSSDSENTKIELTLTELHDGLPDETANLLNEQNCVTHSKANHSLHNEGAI

T3: FLAG-tagged CNNM3 (human) (UniProt Q8NE01)
T3 sequence: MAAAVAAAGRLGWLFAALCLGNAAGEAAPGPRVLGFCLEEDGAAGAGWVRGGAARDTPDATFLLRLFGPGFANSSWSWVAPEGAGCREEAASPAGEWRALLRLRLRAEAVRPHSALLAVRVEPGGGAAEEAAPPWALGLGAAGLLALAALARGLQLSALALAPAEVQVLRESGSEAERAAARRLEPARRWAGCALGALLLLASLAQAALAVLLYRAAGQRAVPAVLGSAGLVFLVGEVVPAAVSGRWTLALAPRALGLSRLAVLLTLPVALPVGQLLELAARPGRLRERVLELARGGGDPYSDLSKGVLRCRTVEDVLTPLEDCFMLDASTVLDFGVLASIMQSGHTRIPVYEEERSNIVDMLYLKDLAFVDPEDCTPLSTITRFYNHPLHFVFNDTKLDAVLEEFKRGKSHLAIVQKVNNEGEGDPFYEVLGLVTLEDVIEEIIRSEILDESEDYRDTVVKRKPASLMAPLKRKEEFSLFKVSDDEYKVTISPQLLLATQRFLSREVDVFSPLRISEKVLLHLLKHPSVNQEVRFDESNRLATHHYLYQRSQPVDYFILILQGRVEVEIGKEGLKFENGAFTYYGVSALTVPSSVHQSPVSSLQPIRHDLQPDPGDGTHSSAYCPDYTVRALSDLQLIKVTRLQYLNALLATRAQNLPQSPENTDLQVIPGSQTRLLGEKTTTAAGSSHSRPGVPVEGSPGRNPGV


Key:
[1] = biological target: T1, FLAG-tagged CNNM4 (human); test: co-IP; anti-FLAG M2 agarose precipitates overexpressed FLAG-tagged CNNM1-4 from total cell lysate, 2 h at 4 °C; for CNNM3 also lysis buffer with 1 mM Mg2+ or without Mg2+ (Supp. Fig. 2B, constructs not told)
[2] = biological target: T2, FLAG-tagged CNNM2 (human); test: as above
[3] = biological target: FLAG-tagged CNNM1 (human) (UniProt Q9NRU3); test: as above
[4] = biological target: T3, FLAG-tagged CNNM3 (human); test: as above
[5] = biological target: T3, FLAG-tagged CNNM3 (human); test: co-IP; overexpressed CNNM3, ARL15 and RPN1 (Supp. Fig. 5); tags, cells and which protein was precipitated not told

| binding [1] | binding [2] | binding [3] | binding [4] | binding [5] | Binder |
| --- | --- | --- | --- | --- | --- |
| binds | binds | binds | binds |  | PRL-2 (endogenous) (protein, UniProt Q12974 1-167) MNRPAPVEISYENMRFLITHNPTNATLNKFTEELKKYGVTTLVRVCDATYDKAPVEKEGIHVLDWPFDDGAPPPNQIVDDWLNLLKTKFREEPGCCVAVHCVAGLGRAPVLVALALIECGMKYEDAVQFIRQKRRGAFNSKQLLYLEKYRPKMRLRFRDTNGHCCVQ |
| binds | binds | binds | binds |  | PRL-1 (endogenous) (protein, UniProt Q93096 1-173) MARMNRPAPVEVTYKNMRFLITHNPTNATLNKFIEELKKYGVTTIVRVCEATYDTTLVEKEGIHVLDWPFDDGAPPSNQIVDDWLSLVKIKFREEPGCCIAVHCVAGLGRAPVLVALALIEGGMKYEDAVQFIRQKRRGAFNSKQLLYLEKYRPKMRLRFKDSNGHRNNCCIQ |
|  |  |  |  | binds | overexpressed RPN1 (protein, UniProt P04843 24-607) ASSEAPPLINEDVKRTVDLSSHLAKVTAEVVLAHLGGGSTSRATSFLLALEPELEARLAHLGVQVKGEDEEENNLEVRETKIKGKSGRFFTVKLPVALDPGAKISVIVETVYTHVLHPYPTQITQSEKQFVVFEGNHYFYSPYPTKTQTMRVKLASRNVESYTKLGNPTRSEDLLDYGPFRDVPAYSQDTFKVHYENNSPFLTITSMTRVIEVSHWGNIAVEENVDLKHTGAVLKGPFSRYDYQRQPDSGISSIRSFKTILPAAAQDVYYRDEIGNVSTSHLLILDDSVEMEIRPRFPLFGGWKTHYIVGYNLPSYEYLYNLGDQYALKMRFVDHVFDEQVIDSLTVKIILPEGAKNIEIDSPYEISRAPDELHYTYLDTFGRPVIVAYKKNLVEQHIQDIVVHYTFNKVLMLQEPLLVVAAFYILFFTVIIYVRLDFSITKDPAAEARMKVACITEQVLTLVNKRIGLYRHFDETVNRYKQSRDISTLNSGKKSLETEHKALTSEIALLQSRLKTEGSDLCDRVSEMQKLDAQVKELVLKSAVEAERLVAGKLKKDTYIENEKLISGKRQELVTKIDHILDAL |
